Results from publication PMC10945694.

Biological target: RRM1 domain of SRSF1 (SRSF1-truncated protein)
Assay: co-IP; FLAG-SRSF1 or truncated SRSF1 together with HA-tagged SART1, RBM15 or SRSF10 in 293T cells; lysate, protein A agarose, western blotting

B1: HA-SART1 (protein, UniProt Q9Z315 1-806)
chain: MGSSKKHRGEKEAAGTTAAAGTGGTTEQPPRHREHKKHKHRSSGGGSSGGERRKRSRERGSERGSGRRGAEAEARSGAHGRERSQAEPSERRVKREKRDDGYEAAASSKASSGDASSLSIEETNKLRAKLGLKPLEVNAVKKEAGTKEEPVAADVINPMALRQREELREKLAAAKEKRLLNQKLGKIKTLGEDDPWLDDTAAWIERSRQLQKEKDLAEKRAKLLEEMDQEFGVSTLVEEEFEQRRQDLYSARDLQGLTVEHAIDSFREGETVVLTLKDKGVLQDGEDVLVNVNMVDKERADKNVELRKKKPDYLPYAEDESVDDLAQQKPRSILAKYDEELEGERPHSFRLEQGGMADGLRERELEEIRTKLRLQAQSLSSVGPRLASEYLSPEEMVTFKKTKRRVKKIRKKEKEVIMRADDLLPLGDQTQDGDFGSRLRGRGRRRVPEVEEEALEDEEKDPVAQPPPSDDTRVENMDISDEEDGGALPPGSPEGLEEDEAELELQKQLEKGRRLRQLQQLQQLRDSGEKVLEIVKKLESRQRGWEEEEDPERKGTIVFNATSEFCRTLGEIPTYGLAGNREEQEELMDFERDEERSANGGSESDGEENIGWSTVNLDEEKQHQDFSASSTTILDEEPIVNRGLAAALLLCQNKGLLETTVQKVARVKAPNKSLPSAVYCIEDKMAIDDKYSRREEYRGFTQDFKEKDGYKPDVKIEYVDETGRKLTPKEAFRQLSHRFHGKGSGKMKTERRMKKLDEEALLKKMSSSDTPLGTVALLQEKQKAQKTPYIVLSGSGKSMNANTITK
  binding: binds

B2: HA-RBM15 (protein, UniProt Q0VBL3 1-962)
chain: MRSAGREPLPRRSPRWRRASPLCETSAGWRVSQLRRDDLRRPSTMKGKERSPVKPKRSRGGEDSSSRGERSKKLGGSGGSNGSSSGKTDSGGSRRSLHLDKSSSRGGSREYETGGGSSSSRLHSYSSPSTKNSSGGGESRSSSRGGGGESRSSGAASSAPGGGDGVEYKTLKISELGSQLSDEAVEDGLFHEFKRFGDVSVKISHLSGSGSGDERVAFVNFRRPEDARAAKHARGRLVLYDRPLKIEAVYVSRRRSRSPLDKDAYAPSSSVVGTSVGSHRHAPGGGGGQRSLSPGGAALGYRDYRLQQLALGRLPPPPPPPLPRELERERDYPFYDRVRPAYSLEPRVGAGAGAAPFREVDEISPEDDQRANRTLFLGNLDITVTENDLRRAFDRFGVITEVDIKRPSRGQTSTYGFLKFENLDMSHRAKLAMSGKIIIRNPIKIGYGKATPTTRLWVGGLGPWVPLAALAREFDRFGTIRTIDYRKGDSWAYIQYESLDAAHAAWTHMRGFPLGGPDRRLRVDFADTEHRYQQQYLQPLPLTHYELVTDTFGHRAPDPLRSARDRTPPLLYRDRDRDLYTDSDWVPPPPPVRERSARAATSAVTAYEPLDSLDRRRDGWSLDRDRGDRDLPSSRDQPRKRRLPEESGGRHLDRSPESERPRKQRHCTPSPDRSPELSSNRDRYNSDNDRSSRLLLLERSSPVRDRRGSLEKSQSDKRDRKNSASAERDRKHRTAAPTEGKNPLKKEDRSDGNAPSASTSSSKQKPPSQKQDGGTAPVAASSPKLCLAWQGMLLLKNSNFPSNMHLLQGDLQVASSLLVEGSTGGKVAQLKITQRLRLDQPKLDEVTRRIKVAGPNGYAILLAVPGSSDSRSSSSSATSDTAASTQRPLRNLVSYLKQKQAAGVISLPVGGNKDKENTGVLHAFPPCEFSQQFLDSPAKALAKSEEDYLVMIIVRAKLVNSG
  binding: binds

These are yes or no findings as the source states them, for the method shown. In cells and extracts the contact can be indirect. Binding can be weak; no strength is given. Tags and fused reporters may be left off the sequences shown.
